These results are taken from patent US8329429B2, “Method of enhancing recombinant protein production” (Induce Biologics Inc., priority 2007, dated 2012).

Data set [1] can be described thus: Quantikine hBMP-2 ELISA of conditioned medium from transfected cell lines. The following applies: hBMP-2 CHO stable transfectants; depends on seeding density, incubation time, medium volume.
A short description of data set [2]: dot blot assay for BMP-2 in conditioned medium.

B1: hBMP-2: wild type human BMP-2 secreted by cells transfected with construct 2334 (SEQ ID NO: 2) (protein, listed as Homo sapiens)
chain: MVAGTRCLLALLLPQVLLGGAAGLVPELGRRKFAAASSGRPSSQPSDEVLSEFELRLLSMFGLKQRPTPSRDAVVPPYMLDLYRRHSGQPGSPAPDHRLERAASRANTVRSFHHEESLEELPETSGKTTRRFFFNLSSIPTEEFITSAELQVFREQMQDALGNNSSFHHRINIYEIIKPATANSKFPVTRLLDTRLVNQNASRWESFDVTPAVMRWTAQGHANHGFVVEVAHLEEKQGVSKRHVRISRSLHQDEHSWSQIRPLLVTFGHDGKGHPLHKREKRQAKHKQRKRLKSSCKRHPLYVDFSDVGWNDWIVAPPGYHAFYCHGECPFPLADHLNSTNHAIVQTLVNSVNSKIPKACCVPTELSAISMLYLDENEKVVLKNYQDMVVEGCGCR
On to B1, for which the “amount of mature hBMP-2 in the medium” value in data set [1] lay in the range of 20 to 100 ng/mL.

B2: S1-BMP-2: proBMP-2 with S1 furin site REKR replaced by linker TNGIEGRALDP (SEQ ID NO: 16) (protein)
chain: LVPELGRRKFAAASSGRPSSQPSDEVLSEFELRLLSMFGLKQRPTPSRDAVVPPYMLDLYRRHSGQPGSPAPDHRLERAASRANTVRSFHHEESLEELPETSGKTTRRFFFNLSSIPTEEFITSAELQVFREQMQDALGNNSSFHHRINIYEIIKPATANSKFPVTRLLDTRLVNQNASRWESFDVTPAVMRWTAQGHANHGFVVEVAHLEEKQGVSKRHVRISRSLHQDEHSWSQIRPLLVTFGHDGKGHPLHKTNGIEGRALDPQAKHKQRKRLKSSCKRHPLYVDFSDVGWNDWIVAPPGYHAFYCHGECPFPLADHLNSTNHAIVQTLVNSVNSKIPKACCVPTELSAISMLYLDENEKVVLKNYQDMVVEGCGCR
With B2, the “BMP-2 Dot Blot” value was 500+ in data set [2] (construct 2340, 293 cells); 500+ in data set [2] (construct 2340, COS cells); 5000+ in data set [2] (construct 2341, 293 cells); 5000+ in data set [2] (construct 2341, COS cells).
